These are yes or no findings as the source states them, for the method shown. Binding seen in cells or lysates may run through a third protein. A yes stands for co-enrichment or nearness to the bait. Other partners may have been found. Tags and fused reporters may be left off the sequences shown.
T1: BcsA^HA-FLAG synthase (E. coli 1094) (UniProt P37653)
T1 sequence: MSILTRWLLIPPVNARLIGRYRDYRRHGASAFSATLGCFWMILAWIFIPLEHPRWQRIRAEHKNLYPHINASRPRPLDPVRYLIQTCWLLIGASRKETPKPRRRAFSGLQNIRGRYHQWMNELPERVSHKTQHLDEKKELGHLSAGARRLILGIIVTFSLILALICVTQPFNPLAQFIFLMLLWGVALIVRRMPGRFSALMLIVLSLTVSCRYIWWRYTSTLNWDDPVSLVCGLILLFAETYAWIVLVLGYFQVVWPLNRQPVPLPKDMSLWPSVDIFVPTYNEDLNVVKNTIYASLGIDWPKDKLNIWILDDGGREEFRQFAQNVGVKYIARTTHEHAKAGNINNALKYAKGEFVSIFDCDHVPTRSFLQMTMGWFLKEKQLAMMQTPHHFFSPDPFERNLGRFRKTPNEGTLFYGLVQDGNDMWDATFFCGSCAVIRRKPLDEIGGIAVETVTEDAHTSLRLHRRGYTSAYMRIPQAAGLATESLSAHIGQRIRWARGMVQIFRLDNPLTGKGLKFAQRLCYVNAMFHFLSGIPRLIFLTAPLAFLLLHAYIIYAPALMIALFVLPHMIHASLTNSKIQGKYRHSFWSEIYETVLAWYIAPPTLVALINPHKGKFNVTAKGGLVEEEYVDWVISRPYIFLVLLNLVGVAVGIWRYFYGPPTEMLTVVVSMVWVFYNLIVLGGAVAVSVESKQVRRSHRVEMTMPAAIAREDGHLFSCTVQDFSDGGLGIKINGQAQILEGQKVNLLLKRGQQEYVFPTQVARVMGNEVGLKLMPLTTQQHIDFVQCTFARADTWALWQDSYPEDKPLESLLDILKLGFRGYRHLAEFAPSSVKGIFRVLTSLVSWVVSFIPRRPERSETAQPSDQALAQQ

Protein sequences, listed by entry. Tags and fused reporters are not part of them.
UniProt P37657: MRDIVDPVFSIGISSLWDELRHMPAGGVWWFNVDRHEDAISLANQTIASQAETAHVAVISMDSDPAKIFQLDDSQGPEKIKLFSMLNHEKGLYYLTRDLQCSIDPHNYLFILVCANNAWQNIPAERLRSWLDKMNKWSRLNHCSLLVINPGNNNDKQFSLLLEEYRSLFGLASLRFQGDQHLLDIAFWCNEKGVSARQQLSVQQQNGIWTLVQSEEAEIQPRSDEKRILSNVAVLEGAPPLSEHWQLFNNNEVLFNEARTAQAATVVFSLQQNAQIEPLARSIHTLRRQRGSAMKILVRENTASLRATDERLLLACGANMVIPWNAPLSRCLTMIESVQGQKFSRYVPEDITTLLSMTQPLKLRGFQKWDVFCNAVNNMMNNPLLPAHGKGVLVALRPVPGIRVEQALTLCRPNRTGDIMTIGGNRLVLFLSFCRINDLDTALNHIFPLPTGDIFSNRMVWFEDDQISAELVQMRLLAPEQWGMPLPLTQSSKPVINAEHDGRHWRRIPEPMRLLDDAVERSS

B1: BcsF (protein, UniProt P0ADJ5 1-63)
chain: MMTISDIIEIIVVCALIFFPLGYLARHSLRRIRDTLRLFFAKPRYVKPAGTLRRTEKARATKK
B2: BcsG (protein, UniProt P37659 1-559)
chain: MTQFTQNTAMPSSLWQYWRGLSGWNFYFLVKFGLLWAGYLNFHPLLNLVFAAFLLMPLPRYSLHRLRHWIALPIGFALFWHDTWLPGPESIMSQGSQVAGFSTDYLIDLVTRFINWQMIGAIFVLLVAWLFLSQWIRITVFVVAILLWLNVLTLAGPSFSLWPAGQPTTTVTTTGGNAAATVAATGGAPVVGDMPAQTAPPTTANLNAWLNNFYNAEAKRKSTFPSSLPADAQPFELLVINICSLSWSDIEAAGLMSHPLWSHFDIEFKNFNSATSYSGPAAIRLLRASCGQTSHTNLYQPANNDCYLFDNLSKLGFTQHLMMGHNGQFGGFLKEVRENGGMQSELMDQTNLPVILLGFDGSPVYDDTAVLNRWLDVTEKDKNSRSATFYNTLPLHDGNHYPGVSKTADYKARAQKFFDELDAFFTELEKSGRKVMVVVVPEHGGALKGDRMQVSGLRDIPSPSITDVPVGVKFFGMKAPHQGAPIVIEQPSSFLAISDLVVRVLDGKIFTEDNVDWKKLTSGLPQTAPVSENSNAVVIQYQDKPYVRLNGGDWVPYPQ

What follows are molecules tested against T1, BcsA^HA-FLAG synthase (E. coli 1094) (assay: affinity purification with mass spectrometry; ANTI-FLAG M2 affinity gel on detergent-solubilised membranes (digitonin, β-DDM, DM-NPG, LM-NPG) of E. coli 1094 bcsA^HA-FLAG 2K7, 3X FLAG peptide elution, 10–40% glycerol gradient; fractions analysed by NS-EM, SDS-PAGE, LC-MS and western blot; 20 mM HEPES pH 8.0, 120 mM NaCl, AppCp, c-di-GMP).

Molecule	binding
BcsE (from UniProt P37657 1-523)	binds
BcsR (E. coli 1094)	binds
B1	binds
B2	binds weakly

From article PMC5727187, “Insights into the structure and assembly of a bacterial cellulose secretion system” (Nature Communications, 2017)
